Source: patent US20210205445A1
No constants are given. Whether binding was seen depends on the method and setting. Some entries that bind do so weakly or less than the wild type.

Sequences of proteins named here, by UniProt entry; tags and fusion partners are left off. A change or cut given only in a name is not applied to a line headed by its entry.
UniProt Q9JKF4: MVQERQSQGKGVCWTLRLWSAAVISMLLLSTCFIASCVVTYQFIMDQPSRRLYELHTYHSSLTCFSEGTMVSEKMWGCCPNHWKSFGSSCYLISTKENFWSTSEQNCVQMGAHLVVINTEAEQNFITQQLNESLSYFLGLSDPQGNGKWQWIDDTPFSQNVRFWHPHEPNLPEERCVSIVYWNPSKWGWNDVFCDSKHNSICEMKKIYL

Target: Dectin-2 expressed with FcRγ chain on B3Z NFAT-lacZ reporter cells (UniProt Q9JKF4)
Experiment: told in the discussion; rests on NFAT-lacZ Dectin-2 reporter cells

## Pichia-expressed Aspergillus Eng2 (from UniProt B0XTU6 22-630) (ligand)
  binding: binds
